The target in this experiment is T1, HA-tagged p57 wildtype (human) (UniProt P49918).
T1 sequence: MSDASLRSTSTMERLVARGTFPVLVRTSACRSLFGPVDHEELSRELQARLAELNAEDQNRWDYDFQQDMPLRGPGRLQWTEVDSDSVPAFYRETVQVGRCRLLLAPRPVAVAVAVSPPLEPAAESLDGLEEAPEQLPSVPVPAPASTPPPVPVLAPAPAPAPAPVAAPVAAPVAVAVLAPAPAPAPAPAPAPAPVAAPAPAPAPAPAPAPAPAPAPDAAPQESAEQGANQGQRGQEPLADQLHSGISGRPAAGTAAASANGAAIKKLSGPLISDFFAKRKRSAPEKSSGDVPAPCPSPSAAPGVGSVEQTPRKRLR
Description: co-IP; HA-IP of HA-p57 from lysates of transfected 293 T cells, 4 hours at 4 °C, IP-buffer; bound FLAG-FHL2 proteins detected with anti-FLAG, endogenous CDKs with anti-PSTAIR.

The chains behind the UniProt entries cited, without tags or fusion partners. Where a name states a change or a piece, a line headed by the entry shows the natural chain unless it says otherwise.
UniProt Q14192: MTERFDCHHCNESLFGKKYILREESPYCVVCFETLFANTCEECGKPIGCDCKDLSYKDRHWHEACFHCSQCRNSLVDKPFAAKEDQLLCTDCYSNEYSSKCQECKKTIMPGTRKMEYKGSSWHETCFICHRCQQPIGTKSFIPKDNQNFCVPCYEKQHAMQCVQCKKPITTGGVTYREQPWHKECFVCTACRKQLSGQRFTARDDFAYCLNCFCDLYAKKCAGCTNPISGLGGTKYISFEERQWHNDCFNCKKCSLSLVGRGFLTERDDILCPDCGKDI

These are yes or no findings as the source states them, for the method shown. In cells and extracts the contact can be indirect. A result given as binding can be weak or reduced; the word gives no strength. Sequences can lack the tags named with a protein.

“FLAG-tagged FHL2 LIM2-4 mutant (from UniProt Q14192) (domain or fragment)”: the binding entry is reported as “binds”.

Source of the values: publication PMC7188849.
